Measurements as given in publication PMC8858573.
Results are given in words; binding and its absence hold for the method and conditions named. Binding seen in cells or lysates may run through a third protein. Some binding calls cover weakened binding; strength is not graded here.

Target: hippocalcin (HPCA) (mouse (endogenous in mouse brain cerebrum and in BV2 cells)) (UniProt P84075)
Experiment: co-IP; lysates of BV2 cells treated with Eth or OBG; HPCA complex pulled down with anti-HPCA antibody (1 mg mL^-1); dectin-1 and Rab11a probed by western blot

B1: dectin-1 (receptor, UniProt Q6QLQ4 1-244)
chain: MKYHSHIENLDEDGYTQLDFSTQDIHKRPRGSEKGSQAPSSPWRPIAVGLGILCFVVVVVAAVLGALGEYGHNSGRNPEEKDNFLSRNKENHKPTESSLDEKVAPSKASQTTGGFSQPCLPNWIMHGKSCYLFSFSGNSWYGSKRHCSQLGAHLLKIDNSKEFEFIESQTSSHRINAFWIGLSRNQSEGPWFWEDGSAFFPNSFQVRNTAPQESLLHNCVWIHGSEVYNQICNTSSYSICEKEL
  binding: binds
